Experimental findings from the supplement of paper PMC7666118 are described below.

Chains of the proteins cited; added tags and fusions are not shown. Lines headed by an entry give the natural chain unless they say otherwise; changes in a name come on top.
UniProt Q15744: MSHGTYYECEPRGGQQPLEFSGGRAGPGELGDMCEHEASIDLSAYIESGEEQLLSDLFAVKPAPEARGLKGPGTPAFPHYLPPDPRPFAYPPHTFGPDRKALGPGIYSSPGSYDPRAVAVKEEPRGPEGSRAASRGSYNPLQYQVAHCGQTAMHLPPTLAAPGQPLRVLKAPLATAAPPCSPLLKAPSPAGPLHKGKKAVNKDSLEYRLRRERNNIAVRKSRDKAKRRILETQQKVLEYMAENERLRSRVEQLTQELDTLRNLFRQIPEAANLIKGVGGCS
UniProt Q07108: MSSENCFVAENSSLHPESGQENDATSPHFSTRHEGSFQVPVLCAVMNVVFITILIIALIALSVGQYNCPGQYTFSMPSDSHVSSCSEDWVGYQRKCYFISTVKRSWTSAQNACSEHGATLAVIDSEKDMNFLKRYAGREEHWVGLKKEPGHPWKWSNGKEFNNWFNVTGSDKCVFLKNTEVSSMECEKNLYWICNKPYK
UniProt Q9NPF2: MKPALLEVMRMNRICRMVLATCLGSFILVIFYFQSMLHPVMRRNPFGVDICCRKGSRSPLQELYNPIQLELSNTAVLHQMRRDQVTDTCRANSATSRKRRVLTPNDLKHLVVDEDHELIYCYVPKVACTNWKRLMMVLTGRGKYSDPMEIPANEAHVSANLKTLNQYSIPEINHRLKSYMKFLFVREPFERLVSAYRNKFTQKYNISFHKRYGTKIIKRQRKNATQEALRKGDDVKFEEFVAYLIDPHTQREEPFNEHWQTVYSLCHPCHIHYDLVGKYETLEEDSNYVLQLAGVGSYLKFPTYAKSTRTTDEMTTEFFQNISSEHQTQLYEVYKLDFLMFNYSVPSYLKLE
UniProt Q6P4Q7: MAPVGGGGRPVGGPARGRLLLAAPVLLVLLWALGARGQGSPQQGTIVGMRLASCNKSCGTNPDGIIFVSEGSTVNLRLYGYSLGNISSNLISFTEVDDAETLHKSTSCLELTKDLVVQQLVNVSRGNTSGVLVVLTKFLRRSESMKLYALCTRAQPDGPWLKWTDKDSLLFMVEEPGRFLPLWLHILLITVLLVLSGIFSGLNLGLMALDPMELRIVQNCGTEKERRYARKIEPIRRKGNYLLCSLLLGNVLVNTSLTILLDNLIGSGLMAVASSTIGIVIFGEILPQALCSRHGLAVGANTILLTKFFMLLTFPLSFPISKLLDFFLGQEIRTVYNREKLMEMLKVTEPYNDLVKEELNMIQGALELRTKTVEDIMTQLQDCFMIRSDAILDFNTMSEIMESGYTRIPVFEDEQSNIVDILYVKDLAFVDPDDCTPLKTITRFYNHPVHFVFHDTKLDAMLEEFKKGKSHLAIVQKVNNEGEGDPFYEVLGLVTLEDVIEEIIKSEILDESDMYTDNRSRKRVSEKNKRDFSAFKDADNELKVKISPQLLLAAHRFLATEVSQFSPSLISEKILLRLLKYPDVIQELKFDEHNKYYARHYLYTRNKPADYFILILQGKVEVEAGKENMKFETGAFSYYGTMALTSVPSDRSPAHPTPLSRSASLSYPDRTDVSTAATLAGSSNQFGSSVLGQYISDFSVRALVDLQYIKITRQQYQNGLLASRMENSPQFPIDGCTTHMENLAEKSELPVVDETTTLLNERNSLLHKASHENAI
UniProt Q8WUD4: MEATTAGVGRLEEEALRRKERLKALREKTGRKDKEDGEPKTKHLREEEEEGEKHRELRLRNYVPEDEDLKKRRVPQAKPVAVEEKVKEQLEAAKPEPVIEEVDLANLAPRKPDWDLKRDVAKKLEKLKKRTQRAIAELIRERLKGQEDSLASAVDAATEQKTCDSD
UniProt Q86WR0: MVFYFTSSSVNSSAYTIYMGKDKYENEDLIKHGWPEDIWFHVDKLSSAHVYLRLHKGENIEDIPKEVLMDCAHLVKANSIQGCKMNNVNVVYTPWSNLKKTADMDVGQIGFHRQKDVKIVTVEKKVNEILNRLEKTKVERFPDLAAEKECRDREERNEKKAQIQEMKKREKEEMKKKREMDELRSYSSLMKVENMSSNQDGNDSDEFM
UniProt Q02224: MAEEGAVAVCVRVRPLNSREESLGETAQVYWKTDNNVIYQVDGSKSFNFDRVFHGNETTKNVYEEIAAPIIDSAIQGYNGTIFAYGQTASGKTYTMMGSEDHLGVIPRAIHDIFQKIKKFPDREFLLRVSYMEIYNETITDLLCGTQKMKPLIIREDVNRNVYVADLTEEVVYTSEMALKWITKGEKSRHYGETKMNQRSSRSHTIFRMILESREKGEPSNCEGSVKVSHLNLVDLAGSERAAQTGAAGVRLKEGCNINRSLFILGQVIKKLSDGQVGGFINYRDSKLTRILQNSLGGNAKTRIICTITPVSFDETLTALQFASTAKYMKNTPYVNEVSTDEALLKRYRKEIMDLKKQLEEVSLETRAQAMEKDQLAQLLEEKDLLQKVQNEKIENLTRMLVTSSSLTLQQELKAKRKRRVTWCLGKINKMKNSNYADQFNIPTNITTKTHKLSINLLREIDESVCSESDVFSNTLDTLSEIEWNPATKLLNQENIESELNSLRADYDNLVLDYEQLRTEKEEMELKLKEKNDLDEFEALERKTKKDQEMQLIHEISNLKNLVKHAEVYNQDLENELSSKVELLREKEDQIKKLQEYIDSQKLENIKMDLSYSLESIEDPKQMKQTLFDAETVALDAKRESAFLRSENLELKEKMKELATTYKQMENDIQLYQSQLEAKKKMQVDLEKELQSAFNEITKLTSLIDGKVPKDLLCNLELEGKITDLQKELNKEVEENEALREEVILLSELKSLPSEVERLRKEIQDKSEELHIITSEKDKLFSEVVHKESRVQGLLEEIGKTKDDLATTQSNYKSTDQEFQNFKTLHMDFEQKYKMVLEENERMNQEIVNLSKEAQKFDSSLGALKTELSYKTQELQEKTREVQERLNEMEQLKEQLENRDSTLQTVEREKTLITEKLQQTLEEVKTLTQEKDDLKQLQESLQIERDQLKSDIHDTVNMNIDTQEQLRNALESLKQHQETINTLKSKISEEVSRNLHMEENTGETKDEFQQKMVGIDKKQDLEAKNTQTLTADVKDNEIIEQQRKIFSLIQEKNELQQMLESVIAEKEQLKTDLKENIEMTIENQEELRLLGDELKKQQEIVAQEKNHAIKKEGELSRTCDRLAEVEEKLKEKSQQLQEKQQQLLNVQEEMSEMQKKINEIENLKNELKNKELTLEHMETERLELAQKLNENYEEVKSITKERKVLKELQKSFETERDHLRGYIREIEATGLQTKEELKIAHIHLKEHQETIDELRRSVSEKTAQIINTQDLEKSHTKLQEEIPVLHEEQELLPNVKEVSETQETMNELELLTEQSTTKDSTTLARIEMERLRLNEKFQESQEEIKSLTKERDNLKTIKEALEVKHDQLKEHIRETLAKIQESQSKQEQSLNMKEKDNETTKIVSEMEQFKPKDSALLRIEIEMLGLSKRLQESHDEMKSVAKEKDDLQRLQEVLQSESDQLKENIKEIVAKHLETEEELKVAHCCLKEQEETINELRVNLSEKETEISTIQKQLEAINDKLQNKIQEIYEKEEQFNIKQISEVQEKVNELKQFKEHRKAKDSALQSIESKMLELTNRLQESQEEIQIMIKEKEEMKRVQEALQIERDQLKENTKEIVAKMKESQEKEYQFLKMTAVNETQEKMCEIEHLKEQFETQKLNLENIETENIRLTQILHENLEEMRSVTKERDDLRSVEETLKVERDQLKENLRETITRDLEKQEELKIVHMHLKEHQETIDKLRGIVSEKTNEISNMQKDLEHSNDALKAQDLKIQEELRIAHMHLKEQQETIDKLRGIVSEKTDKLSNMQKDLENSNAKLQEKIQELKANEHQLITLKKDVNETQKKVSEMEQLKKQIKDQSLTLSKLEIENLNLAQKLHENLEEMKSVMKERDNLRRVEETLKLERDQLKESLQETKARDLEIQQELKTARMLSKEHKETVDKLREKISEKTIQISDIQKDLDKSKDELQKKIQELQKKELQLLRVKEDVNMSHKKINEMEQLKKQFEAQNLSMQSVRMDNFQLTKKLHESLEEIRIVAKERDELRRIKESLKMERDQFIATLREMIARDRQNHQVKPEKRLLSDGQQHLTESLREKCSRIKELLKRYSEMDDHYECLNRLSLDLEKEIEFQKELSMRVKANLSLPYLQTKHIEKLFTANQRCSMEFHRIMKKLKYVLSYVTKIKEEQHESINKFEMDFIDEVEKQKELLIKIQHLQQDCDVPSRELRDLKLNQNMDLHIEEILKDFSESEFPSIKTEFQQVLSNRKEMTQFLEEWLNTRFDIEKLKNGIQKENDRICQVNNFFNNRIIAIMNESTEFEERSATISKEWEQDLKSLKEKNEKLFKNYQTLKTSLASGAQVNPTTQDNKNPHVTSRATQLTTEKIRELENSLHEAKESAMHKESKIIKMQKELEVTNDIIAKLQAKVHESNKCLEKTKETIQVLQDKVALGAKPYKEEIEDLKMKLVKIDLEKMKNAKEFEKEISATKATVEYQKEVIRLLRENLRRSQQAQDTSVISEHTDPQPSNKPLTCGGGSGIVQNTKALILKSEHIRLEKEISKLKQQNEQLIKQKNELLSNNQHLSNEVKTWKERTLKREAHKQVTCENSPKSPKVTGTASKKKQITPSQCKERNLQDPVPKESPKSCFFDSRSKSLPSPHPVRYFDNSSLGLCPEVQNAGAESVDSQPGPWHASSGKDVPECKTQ
UniProt Q99618: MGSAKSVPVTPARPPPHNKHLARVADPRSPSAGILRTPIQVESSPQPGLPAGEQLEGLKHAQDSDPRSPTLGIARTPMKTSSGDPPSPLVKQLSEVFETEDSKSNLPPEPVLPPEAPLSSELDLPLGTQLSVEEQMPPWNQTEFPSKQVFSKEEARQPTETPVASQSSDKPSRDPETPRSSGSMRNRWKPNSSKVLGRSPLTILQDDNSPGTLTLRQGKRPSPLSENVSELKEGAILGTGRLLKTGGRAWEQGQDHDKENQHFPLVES
UniProt P08174: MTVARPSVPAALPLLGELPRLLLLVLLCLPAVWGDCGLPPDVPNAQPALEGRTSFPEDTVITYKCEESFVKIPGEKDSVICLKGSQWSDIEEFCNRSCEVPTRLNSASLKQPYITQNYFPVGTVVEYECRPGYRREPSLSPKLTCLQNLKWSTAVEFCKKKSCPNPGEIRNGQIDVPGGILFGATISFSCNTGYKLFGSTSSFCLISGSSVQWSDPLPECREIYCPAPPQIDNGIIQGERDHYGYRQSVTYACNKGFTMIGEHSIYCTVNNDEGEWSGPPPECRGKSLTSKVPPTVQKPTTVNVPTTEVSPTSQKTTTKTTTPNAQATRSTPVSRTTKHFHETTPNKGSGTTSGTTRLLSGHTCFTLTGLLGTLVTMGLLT
UniProt Q9BY43: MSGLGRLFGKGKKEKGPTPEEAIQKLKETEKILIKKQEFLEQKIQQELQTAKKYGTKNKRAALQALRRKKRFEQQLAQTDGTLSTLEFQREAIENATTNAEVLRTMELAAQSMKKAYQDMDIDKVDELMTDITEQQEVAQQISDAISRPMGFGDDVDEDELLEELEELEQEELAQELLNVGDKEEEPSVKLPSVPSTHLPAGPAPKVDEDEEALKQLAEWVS
UniProt Q9Y2V7: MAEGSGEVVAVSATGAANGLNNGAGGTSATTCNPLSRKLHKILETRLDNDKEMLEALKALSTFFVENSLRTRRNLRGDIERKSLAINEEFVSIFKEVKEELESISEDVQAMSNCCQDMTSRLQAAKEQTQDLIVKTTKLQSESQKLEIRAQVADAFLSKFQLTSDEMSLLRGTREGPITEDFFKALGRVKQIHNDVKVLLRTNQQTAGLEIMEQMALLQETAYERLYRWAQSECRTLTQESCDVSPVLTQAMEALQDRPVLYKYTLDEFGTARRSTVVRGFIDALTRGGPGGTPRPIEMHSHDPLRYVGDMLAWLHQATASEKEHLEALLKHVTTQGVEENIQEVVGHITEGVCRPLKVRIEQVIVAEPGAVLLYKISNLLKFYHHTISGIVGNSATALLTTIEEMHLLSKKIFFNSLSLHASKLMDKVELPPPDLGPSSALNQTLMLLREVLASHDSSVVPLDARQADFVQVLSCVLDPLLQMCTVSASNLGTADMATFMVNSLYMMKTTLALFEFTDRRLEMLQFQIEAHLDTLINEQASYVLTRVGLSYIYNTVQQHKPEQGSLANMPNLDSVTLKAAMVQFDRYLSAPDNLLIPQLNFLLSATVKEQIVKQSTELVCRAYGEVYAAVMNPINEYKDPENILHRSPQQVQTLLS
UniProt O75794: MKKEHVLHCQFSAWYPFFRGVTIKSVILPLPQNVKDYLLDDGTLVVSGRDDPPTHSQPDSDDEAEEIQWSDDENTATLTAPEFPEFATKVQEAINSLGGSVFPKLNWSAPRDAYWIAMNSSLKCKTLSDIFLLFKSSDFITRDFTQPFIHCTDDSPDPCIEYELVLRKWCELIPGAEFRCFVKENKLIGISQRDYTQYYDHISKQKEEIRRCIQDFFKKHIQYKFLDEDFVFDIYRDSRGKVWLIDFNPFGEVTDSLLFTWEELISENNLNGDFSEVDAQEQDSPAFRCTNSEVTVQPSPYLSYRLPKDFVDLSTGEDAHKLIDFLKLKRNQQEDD

Some of the results follow.

Compound in the assay: COc1ccc(Cn2ccc3ccc(C(=O)NO)cc32)cc1
In words: dose-dependent thermal stabilisation call (2D-TPP, DLPTP, 10% FDR) (binary (1 = stabilised)); higher = stabilised by the compound. Particulars: system: HL-60 intact cells; concentration range 0.04-10 µM.
CDC45L (UniProt O75419): the “dose-dependent thermal stabilisation call” value is inactive: 0. As to CCDC52 (UniProt Q8N0Z3), the “dose-dependent thermal stabilisation call” value is inactive: 0.

On to CLCN7 (UniProt P51798), for which the “dose-dependent thermal stabilisation call” value is inactive: 0.

As for CEBPE (UniProt Q15744), the “dose-dependent thermal stabilisation call” value is inactive: 0. Consider CMC1 (UniProt Q7Z7K0), for which the “dose-dependent thermal stabilisation call” value was inactive: 0. CHSY1 (UniProt Q86X52): the “dose-dependent thermal stabilisation call” value was inactive: 0.

On to CHD1L (UniProt Q86WJ1), for which the “dose-dependent thermal stabilisation call” value was inactive: 0. To CCDC88B (UniProt A6NC98) belongs inactive: 0; to CMTM6 (UniProt Q9NX76), inactive: 0. To CD69 (UniProt Q07108) belongs inactive: 0; to CHKB (UniProt Q9Y259), inactive: 0; to CLN3 (UniProt Q13286), inactive: 0. To CHST11 (UniProt Q9NPF2) belongs inactive: 0; to CEP78 (UniProt Q5JTW2), inactive: 0. Regarding CNNM4 (UniProt Q6P4Q7), the “dose-dependent thermal stabilisation call” value was inactive: 0. For CCDC12 (UniProt Q8WUD4), the “dose-dependent thermal stabilisation call” value is inactive: 0. To CCDC25 (UniProt Q86WR0) belongs inactive: 0. The figure for CHST12 (UniProt Q9NRB3) is inactive: 0. To CD4 (UniProt P01730) belongs inactive: 0; to CDCA2 (UniProt Q69YH5), inactive: 0. With CDC2L5 (UniProt Q14004), the “dose-dependent thermal stabilisation call” value is inactive: 0. To CIAPIN1 (UniProt Q6FI81) belongs inactive: 0.

Consider CCT5 (UniProt P48643), for which the “dose-dependent thermal stabilisation call” value is inactive: 0. The figure for CENPV (UniProt Q7Z7K6) is inactive: 0; for CENPE (UniProt Q02224) it is inactive: 0. The figure for CCNY (UniProt Q8ND76) is inactive: 0; for CDCA3 (UniProt Q99618) it is inactive: 0; for CD55 (UniProt P08174) it is inactive: 0. The figure for CCDC58 (UniProt Q4VC31) is inactive: 0. CD37 (UniProt P11049): the “dose-dependent thermal stabilisation call” value is inactive: 0. With CCT4 (UniProt P50991), the “dose-dependent thermal stabilisation call” value is inactive: 0. To CHMP4A (UniProt Q9BY43) belongs inactive: 0; to CCDC109B (UniProt Q9NWR8), inactive: 0.

For the target COG6 (UniProt Q9Y2V7), the “dose-dependent thermal stabilisation call” value was inactive: 0. For CCDC90B (UniProt Q9GZT6), the “dose-dependent thermal stabilisation call” value was inactive: 0. To CDKAL1 (UniProt Q5VV42) belongs inactive: 0; to CDC123 (UniProt O75794), inactive: 0.
